Patent EP3072514A1, “Novel oral anticoagulants (NOACs) for preventing development and aggravation of atrial fibrillation” (Université Pierre et Marie Curie - Paris 6 (UPMC), priority 2015, dated 2016)
At least one structure is not confirmed: it was looked up by name or label, or the drawing left a doubt.

What was measured:
Assay type in all cases: in vivo, Male OFA Sprague-dawley rats
[1] = test system: rats with occlusion of left coronary artery followed by reperfusion (I/R); assay: Echocardiographic evaluation of left atrium and left ventricle in rats after ischemia/reperfusion (I/R); settings: four weeks post-I/R; one month of treatment started just after I/R
Text: • Figure 1 is a combination of two graphs showing left atrium (LA) area after one month of treatment with DTI Dabigatran (A) or S35792 (B). Vehicle (V) is 60% H2O/40% PEG 300 for dabigatran and saline for S35972. Treatment of rats started just after thoracotomy without (Sham) or with occlusion of left coronary artery followed by reperfusion (I/R). […] Vehicle (V) is 60% H2O/40% PEG 300 for dabigatran and saline for S35972. Treatment of rats started just after thoracotomy without (Sham) or with occlusion of left coronary artery followed by reperfusion (I/R). Results are presented as mean +/- S.E.M. * P<0.05; ** P<0.001, *** P<0.001 vs Sham; #P<0.05 vs untreated I/R. • Figure 3 is a combination of two graphs showing thrombin time (TT), which reflects anticoagulant activity, and plasma concentrations of Dabigatran (A) and S35792 (B) in rats after throracotomy with occlusion of left coronary artery followed by reperfusion (I/R). Vehicle (V) is 60% H2O/40% PEG 300 for dabigatran and saline for S35972. […] DTI plasma levels are quantified using LC-MS/MS. TT are expressed as mean +/- S.E.M with reference to the mean value of sham animals that underwent thoracotomy only. *** P<0.001 vs untreated I/R. • Figure 4 is a combination of three graphs showing left atrium (LA) area (A) and diameter (B) and left ventricle end-diastolic (LVED) diameter (C) after two months of treatment with S35972. […] LA area was measured by bidimensional echocardiography. LA and LVED diameters were measured in time-motion mode. […] AF duration is measured as the time between the end of the electric stimulation and the return to sinusoidal rhythm. […] Expression of mRNA was measured with real-time qPCR. […] Expression of mRNA was measured with real-time qPCR. […] Expression of mRNA was measured with real-time qPCR. […] LA area was measured by bidimensional echocardiography. LVED and LA diameters were measured in time-motion mode. […] AF duration is measured as the time between the end of the electric stimulation and return to sinusoidal rhythm. […]

α-MHC = assay: mRNA expression by real-time qPCR in atria and ventricle of I/R rats; settings: 25 mg/kg/day for 4 weeks post I/R
Text: (§1) • Figure 1 is a combination of two graphs showing left atrium (LA) area after one month of treatment with DTI Dabigatran (A) or S35792 (B). Vehicle (V) is 60% H2O/40% PEG 300 for dabigatran and saline for S35972. Treatment of rats started just after thoracotomy without (Sham) or with occlusion of left coronary artery followed by reperfusion (I/R). […] Vehicle (V) is 60% H2O/40% PEG 300 for dabigatran and saline for S35972. Treatment of rats started just after thoracotomy without (Sham) or with occlusion of left coronary artery followed by reperfusion (I/R). […] DTI plasma levels are quantified using LC-MS/MS. TT are expressed as mean +/- S.E.M with reference to the mean value of sham animals that underwent thoracotomy only. *** P<0.001 vs untreated I/R. • Figure 4 is a combination of three graphs showing left atrium (LA) area (A) and diameter (B) and left ventricle end-diastolic (LVED) diameter (C) after two months of treatment with S35972. […] LA area was measured by bidimensional echocardiography. LA and LVED diameters were measured in time-motion mode. […] AF duration is measured as the time between the end of the electric stimulation and the return to sinusoidal rhythm. […] Expression of mRNA was measured with real-time qPCR. […] Expression of mRNA was measured with real-time qPCR. […] Expression of mRNA was measured with real-time qPCR. […] LA area was measured by bidimensional echocardiography. […]

β-MHC = assay: as above; settings: 25 mg/kg/day for 4 weeks post I/R
Text: as §1

## [H]/N=C(/N)c1ccc(NCc2nc3cc(C(=O)N(CCC(=O)O)c4ccccn4)ccc3n2C)cc1 [dabigatran, reference compound]
[1]
  dilatation of left atrium (left atrium (LA) area): prevent the dilatation of left atrium
  ventricular diameter (LVED diameter): do not impact
  ventricular function (fractional shortening): do not impact
α-MHC
  expression of α-MHC (mRNA) in left atrium: without impacting the expression of α-MHC
β-MHC
  synthesis of β-MHC (mRNA) in left atrium: prevents the synthesis of β-MHC
